The text below walks through data of paper PMC11027350.

The chains behind the UniProt entries cited, without tags or fusion partners.
UniProt P08047: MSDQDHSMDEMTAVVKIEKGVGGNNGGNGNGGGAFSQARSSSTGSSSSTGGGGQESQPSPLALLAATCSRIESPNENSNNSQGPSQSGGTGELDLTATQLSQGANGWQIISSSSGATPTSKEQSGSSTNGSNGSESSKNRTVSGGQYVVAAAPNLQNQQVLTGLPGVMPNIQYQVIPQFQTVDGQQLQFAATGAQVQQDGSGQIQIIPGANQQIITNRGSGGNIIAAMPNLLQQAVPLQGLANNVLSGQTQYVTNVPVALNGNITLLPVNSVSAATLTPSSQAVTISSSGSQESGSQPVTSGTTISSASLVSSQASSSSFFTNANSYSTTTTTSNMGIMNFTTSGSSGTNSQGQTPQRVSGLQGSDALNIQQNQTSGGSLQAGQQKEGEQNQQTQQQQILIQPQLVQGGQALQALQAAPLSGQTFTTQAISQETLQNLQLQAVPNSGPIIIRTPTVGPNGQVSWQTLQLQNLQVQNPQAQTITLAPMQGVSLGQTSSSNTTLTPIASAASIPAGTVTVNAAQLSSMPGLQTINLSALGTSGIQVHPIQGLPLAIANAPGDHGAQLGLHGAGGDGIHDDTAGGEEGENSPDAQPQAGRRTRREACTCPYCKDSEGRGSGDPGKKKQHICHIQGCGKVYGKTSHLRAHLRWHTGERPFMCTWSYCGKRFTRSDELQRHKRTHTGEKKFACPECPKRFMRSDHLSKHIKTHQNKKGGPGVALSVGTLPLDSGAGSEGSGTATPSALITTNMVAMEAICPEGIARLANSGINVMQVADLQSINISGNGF
UniProt Q92831: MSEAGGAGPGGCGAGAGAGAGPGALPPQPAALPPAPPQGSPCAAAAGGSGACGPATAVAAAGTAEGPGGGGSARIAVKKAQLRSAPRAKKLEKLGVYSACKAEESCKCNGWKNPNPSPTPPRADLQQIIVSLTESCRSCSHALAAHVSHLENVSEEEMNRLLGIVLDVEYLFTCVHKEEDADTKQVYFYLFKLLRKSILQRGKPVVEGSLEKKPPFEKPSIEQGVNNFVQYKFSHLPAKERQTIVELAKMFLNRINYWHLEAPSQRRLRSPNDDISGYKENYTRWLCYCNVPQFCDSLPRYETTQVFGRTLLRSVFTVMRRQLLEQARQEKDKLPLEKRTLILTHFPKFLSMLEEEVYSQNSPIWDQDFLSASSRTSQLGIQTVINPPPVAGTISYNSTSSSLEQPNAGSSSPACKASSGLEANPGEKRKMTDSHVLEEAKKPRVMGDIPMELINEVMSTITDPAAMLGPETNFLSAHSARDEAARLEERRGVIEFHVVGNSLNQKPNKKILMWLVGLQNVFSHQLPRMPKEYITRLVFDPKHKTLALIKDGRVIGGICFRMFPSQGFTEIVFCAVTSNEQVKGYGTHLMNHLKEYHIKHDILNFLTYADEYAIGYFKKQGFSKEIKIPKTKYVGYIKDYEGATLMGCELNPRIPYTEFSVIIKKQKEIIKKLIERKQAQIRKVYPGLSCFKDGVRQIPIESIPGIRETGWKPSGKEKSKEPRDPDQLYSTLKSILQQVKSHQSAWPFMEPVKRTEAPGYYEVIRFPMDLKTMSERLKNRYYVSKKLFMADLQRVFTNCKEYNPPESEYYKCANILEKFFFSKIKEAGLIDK

Assay [1] addresses recombinant glutathione S-transferase (GST)-SP1 fusion protein (UniProt P08047). Put plainly: pull-down; GST-SP1 or GST held on Glutathione Agarose (Pierce GST Protein Interaction Pull-Down Kit), incubated with FLAG-tagged KAT2B recombinant protein at 4 °C for 2 h; eight washes with 1:1 TBS: Pull-Down Lysis Buffer; Western blotting; both purified. In general terms: Immunoblotting shows a protein as a band on a membrane.

Assay [2] deals with histone lysine acetyltransferase KAT2B (Lysine acetyltransferase 2B) (human (in human CCA cell lines)) (UniProt Q92831). Put plainly: co-IP; CCA cell lysate (Pierce IP Lysis Buffer) immunoprecipitated with anti-KAT2B antibody overnight at 4 °C, Protein A/G magnetic beads; washed with 50 mmol/L Tris-HCl pH 7.6, 150 mmol/L NaCl, 1 mmol/L EDTA, 0.1% NP-40; Western blotting; IgG as negative control.

For assay [3], the target named is transcription factor SP1 (Specificity Protein 1) (human (endogenous in human CCA cell lines)) (UniProt P08047). Put plainly: co-IP; CCA cell lysate (Pierce IP Lysis Buffer) immunoprecipitated with anti-SP1 or anti-YY1 antibody overnight at 4 °C, Protein A/G magnetic beads; washed with 50 mmol/L Tris-HCl pH 7.6, 150 mmol/L NaCl, 1 mmol/L EDTA, 0.1% NP-40; Western blotting for KAT2B; IgG as negative control.

These are yes or no findings as the source states them, for the method shown. For part of these data: Binding seen in cells or lysates may run through a third protein. Some entries that bind do so weakly or less than the wild type.

On to “Recombinant KAT2B-Flag protein (from UniProt Q92831 1-832)”, for which, in assay [1], the binding result is reported as “binds”.

On to “transcription factor SP1 (Specificity Protein 1) (from UniProt P08047 1-785)”, for which the binding entry in assay [2] is “binds”.

Turning to “histone lysine acetyltransferase KAT2B (Lysine acetyltransferase 2B) (from UniProt Q92831 1-832)”, in assay [3], the binding entry is recorded as “binds”.
